The list shows a part of the results.

Amino acid sequences for entries named in this document (tags omitted).
UniProt Q0JBA9, entry or part of it: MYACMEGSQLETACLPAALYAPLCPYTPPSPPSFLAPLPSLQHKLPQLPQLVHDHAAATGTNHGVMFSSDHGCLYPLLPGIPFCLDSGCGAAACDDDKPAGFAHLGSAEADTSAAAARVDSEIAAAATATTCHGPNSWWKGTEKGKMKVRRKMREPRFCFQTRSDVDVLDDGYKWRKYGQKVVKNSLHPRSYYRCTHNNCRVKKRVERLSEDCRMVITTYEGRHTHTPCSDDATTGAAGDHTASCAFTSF

The target of the test is OsWRKY34 (Oryza sativa, UniProt Q0JBA9 1-250). The test is described as follows: protein-binding microarray (RPBM); PBS, 2% BSA, 51.3 ng/ul salmon testes DNA, 50 uM zinc acetate, 200 nM TF, 25 C, 1 h; high values mean tight binding. To be noted: protein: recombinant; tags: N-terminal polyhistidine and DsRed monomer fusion (pET32a); label: CyDye5-dUTP incorporated in the synthesized complementary strand; 3' TTTTT single-stranded linker to array surface; dsDNA, one strand shown. The gist of the method: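 Polyhistidine-tagged DsRed fusions of transcription factors, joined at the N-terminus, were expressed in E. coli BL21-CodonPlus and isolated on Ni–NTA. They were incubated at 200 nM for 1 h at 25 °C on a custom Agilent array, double-stranded and BSA-blocked, in PBS with 2% BSA, salmon testes DNA and 50 µM zinc acetate. The binding signal is per-feature fluorescence intensity (arbitrary units) read on an Axon 4000B scanner after washing.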
Regarding “ATGATTTTGATTTTGTGCTCTGCTCTGCCTTTTGCTCCTACGGAGTCACCTAGTGCAG”, the binding signal is 13700 fluorescence intensity (a.u.).
For “GCTTCTCGTTCCGTCGTCGGCATTTCCTCCAGGATACCTGCGGAGTCACCTAGTGCAG” the value was 8040 fluorescence intensity (a.u.).
For “CGTGTTGTTCTTTTTCTTCCTTCAACGCCGTAAATGGCCTCGGAGTCACCTAGTGCAG” the value was 8660 fluorescence intensity (a.u.); for “TTCCTTCGCTGTGACGTCGTTCGTTCTGGATTGGTTACACCGGAGTCACCTAGTGCAG”, 9780 fluorescence intensity (a.u.); for “TTTTTCATCCTTTTTTTCTCTTTCCATTTTCCTCTAGAATCGGAGTCACCTAGTGCAG”, 8280 fluorescence intensity (a.u.).
For “ACTTTTTCTTCAAACTTCCAATTTTTCCATCACATGAAAACGGAGTCACCTAGTGCAG” the value was 8680 fluorescence intensity (a.u.); for “TGGTTGCTGCCCATACTACCCACTCACCCACCCACCAGTCCGGAGTCACCTAGTGCAG”, 8510 fluorescence intensity (a.u.); for “CGCTTCGCTGACGGTTGTGTGTTGGTGGGTGCAGGGGTGCCGGAGTCACCTAGTGCAG”, 12700 fluorescence intensity (a.u.).
For “TCATTACATGATGAGGCGCCTCCTGCCATTCACCGTGCTCCGGAGTCACCTAGTGCAG”, the binding signal was 8350 fluorescence intensity (a.u.).
For “AAAAGTCAGTTTTCGTGTTCAATGTGTTGTGTTTAATTTCCGGAGTCACCTAGTGCAG” the value was 8570 fluorescence intensity (a.u.); for “ACAGGGGCGCCTTTATTCCTGCACATCTAGGATTTGTACTCGGAGTCACCTAGTGCAG”, 8150 fluorescence intensity (a.u.).
For “ATCGTTGTTTTGTTGCACTATAGTTAACTTAATTGTTTGACGGAGTCACCTAGTGCAG” the value was 8520 fluorescence intensity (a.u.); for “TGCCGACTTGCCGTGCTACGACACTTCATGCGTAATTTCTCGGAGTCACCTAGTGCAG”, 9380 fluorescence intensity (a.u.).
For “CCTTTTCCCAGAGATTCCACATCCATCCAGCCCGCGGCCGCGGAGTCACCTAGTGCAG” the value was 9060 fluorescence intensity (a.u.); for “TTTTTTTTTCATCGATGCTTATTTTTTCAGCCTTTACTTTCGGAGTCACCTAGTGCAG”, 8640 fluorescence intensity (a.u.); for “ATATGTAGTTACTCTTTGTTTATGTGTCACCGTTGCATTCCGGAGTCACCTAGTGCAG”, 8060 fluorescence intensity (a.u.).
For the sequence “CTTCTTTTGTCCCACAAGAACAGTACACCACACTGTCCACCGGAGTCACCTAGTGCAG”, the binding signal is 8790 fluorescence intensity (a.u.).
For “GCCTTCACTGATCACCGCGATTCGGAGATTCTAATTGTTACGGAGTCACCTAGTGCAG”, the binding signal is 10500 fluorescence intensity (a.u.).
Turning to “CTTTCTTAATTGCTACTTCCTAGTTGTCTGCCTTTCTTCTCGGAGTCACCTAGTGCAG”, the binding signal is 8340 fluorescence intensity (a.u.).
For “GGCCTCTCTGATGATCACGATATGGGCCTGGTGTAGTTTCCGGAGTCACCTAGTGCAG” the value was 8140 fluorescence intensity (a.u.).
Take “TAAACCTATTGTTAACCTTGTACATTTGTAAGGATATTTTCGGAGTCACCTAGTGCAG”: the binding signal was 8520 fluorescence intensity (a.u.).
For “AGAGCAAAGAATTTCCCCACGATTTTTTTTCCTGTTTATTCGGAGTCACCTAGTGCAG” the value was 8840 fluorescence intensity (a.u.); for “CTTTCCCTTGATTTTTTGGGTTGGATGGGGAGGGTAGACGCGGAGTCACCTAGTGCAG”, 12900 fluorescence intensity (a.u.); for “CTGGTATCCTGTTGCCGTCTCCACCGCCACGTTCCTCCTCCGGAGTCACCTAGTGCAG”, 8600 fluorescence intensity (a.u.).
Turning to “ACTCCTCTTCACCCACTCCACGCCATCTCTCTCGCGCTCTCGGAGTCACCTAGTGCAG”, the binding signal is 13700 fluorescence intensity (a.u.).
For “TATCGAATTCCATCCATTTTTTTGCTTTGTCCAATTCGTGCGGAGTCACCTAGTGCAG” the value was 10100 fluorescence intensity (a.u.); for “CTGCATCCTGCACGCCGCATCCGCACATAGCCACTCCACTCGGAGTCACCTAGTGCAG”, 8820 fluorescence intensity (a.u.); for “GCTGGGACCCACCATTTCCCCGGCCCCATCTGTCATAGGCCGGAGTCACCTAGTGCAG”, 8440 fluorescence intensity (a.u.).
Turning to “TTGTAGGATCAAATCAGCTAGCACGCTCTTGACACTTGAGCGGAGTCACCTAGTGCAG”, the binding signal was 8490 fluorescence intensity (a.u.).
For “ATACATATAAGTTACTACTCCCACTGTTCATATTATAAGCCGGAGTCACCTAGTGCAG” the value was 8640 fluorescence intensity (a.u.).
For “TATATTTTAATATTTTAATGTATGACGTCGTTGACTTTTTCGGAGTCACCTAGTGCAG” the value was 13800 fluorescence intensity (a.u.).
Take “GGGGCCTCACCAACCACGGCCGCGCTTCGCTTCTTCCTCTCGGAGTCACCTAGTGCAG”: the binding signal is 9040 fluorescence intensity (a.u.).
Take “ACTTCCACCTTTTCCTATTTCTCCTCTCCGTTCTCTCCGGCGGAGTCACCTAGTGCAG”: the binding signal is 9140 fluorescence intensity (a.u.).
For “GCTAGTCCTATACCATTCATTGATGCTACCTACTACCGGGCGGAGTCACCTAGTGCAG” the value was 8170 fluorescence intensity (a.u.); for “GAGGCATGGAGGGCGGCGGCGGCGGCGGCGGAGGAGGAGGCGGAGTCACCTAGTGCAG”, 13700 fluorescence intensity (a.u.); for “CGAATTGCTTCGTCGTCCTCGCCTCCGGTCTCCGCGCGCGCGGAGTCACCTAGTGCAG”, 14400 fluorescence intensity (a.u.).
Take “TCCCGCGTCCTATTTTTTTTCTTTTACGATTTTTTTTCTTCGGAGTCACCTAGTGCAG”: the binding signal is 10000 fluorescence intensity (a.u.).
For the sequence “TTGTCCATCTTCTTTCTTCTTCTTCTCCACTTACTTGTCCCGGAGTCACCTAGTGCAG”, the binding signal is 8060 fluorescence intensity (a.u.).
Turning to “ACCCACATTATCACTTGCATTTTCTCCAATTATATCATAACGGAGTCACCTAGTGCAG”, the binding signal is 11300 fluorescence intensity (a.u.).
Turning to “CTTCTGGCAATTGTCCTGTACTGCACTGGATGACCCGTTCCGGAGTCACCTAGTGCAG”, the binding signal is 10200 fluorescence intensity (a.u.).
Turning to “CCTTTTTTAGCTAGAGTGGGGTGGTTTTGCCTTTGCTGCCCGGAGTCACCTAGTGCAG”, the binding signal was 11000 fluorescence intensity (a.u.).
For “GAAGTGGCGGGGCGGAGATCTCGTTGTCGATCGCGCAGCACGGAGTCACCTAGTGCAG” the value was 9440 fluorescence intensity (a.u.).

These data come from paper PMC7819943, “Rice protein-binding microarrays: a tool to detect cis-acting elements near promoter regions in rice”.
